In article PMC4518582:
Tags and fusion partners may be left off the protein sequences shown. For some assays here: The exact form of at least one protein or probe is not confirmed.

Key:
NtcA = target: T1, NtcA (UniProt P0A4U6); assay: EMSA; conditions: 1 mM 2-oxoglutarate; FurA: 10 mM Tris pH 7.5, 40 mM KCl, 0.1 mg/ml BSA, 5% glycerol, 1 mM MnCl2, 1 mM DTT, 50 ug/ml salmon sperm DNA; NtcA: 12 mM HEPES-NaOH pH 8, 4 mM Tris-HCl pH 8; recombinant protein; label: Cy5 on reverse primer (3' end as stated); probe letters rebuilt from the primers and the genome
T1 sequence (looked up, limits assumed): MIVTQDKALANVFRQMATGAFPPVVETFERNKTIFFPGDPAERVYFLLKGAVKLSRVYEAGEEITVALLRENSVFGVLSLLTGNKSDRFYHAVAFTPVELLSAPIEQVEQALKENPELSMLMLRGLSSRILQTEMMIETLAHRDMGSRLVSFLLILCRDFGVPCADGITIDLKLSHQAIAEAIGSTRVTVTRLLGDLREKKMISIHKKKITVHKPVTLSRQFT

[1] = tested on: T2, FurA (Nostoc sp. PCC 7120); assay: EMSA; conditions: 1 mM Mn2+, 1 mM DTT; FurA: 10 mM Tris pH 7.5, 40 mM KCl, 0.1 mg/ml BSA, 5% glycerol, 1 mM MnCl2, 1 mM DTT, 50 ug/ml salmon sperm DNA; NtcA: 12 mM HEPES-NaOH pH 8, 4 mM Tris-HCl pH 8; recombinant protein; residues 1-151; label: Cy5 on reverse primer (3' end as stated); probe letters rebuilt from the primers and the genome
T2 sequence (looked up): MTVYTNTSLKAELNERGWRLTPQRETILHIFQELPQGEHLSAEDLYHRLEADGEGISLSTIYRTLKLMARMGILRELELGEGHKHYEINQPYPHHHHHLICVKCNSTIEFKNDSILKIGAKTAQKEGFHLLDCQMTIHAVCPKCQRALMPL

GTTTTTGTGGTTTTGAGCATTGAGGGTTTATGCAGAGGCTCATCGCTTCGGCAAGTAACAGTTTTATCAGAATAGTTTAACCTGATCGGGATTCTTCGTAATAAATTAGGCGATCGCAATATCTCATCTCAAGTGGGACAATGAATTATAAAAATGTCAATTACCTTTCTTGATCATGATTTTTTCCATTTCATGGTTCAAAAAAGCTCCCACTGTGGCAATCTGAGAAACATAGGCTTTTAAATCTGATATTTTAACTACAGCAAATCCACCTAATTAAGGTTATGCAAACTCTGCCGACACCCACAACATCCAGTAATACAGCCAACCAAGCCACCTTTGATACTACAATCAAGCGTCGTAAAACCCGTCCTGTGAAAGTGGGTAATGTCACCATCGGCGGTGGCTACCCTGTGGTGGTGCAGTCGATGATTAACGAAGACACTCTTGATAT (double strand) [Ppkn22 (pkn22 promoter)]
binding result (NtcA): binds | binding result [1]: binds
